Results are given in words; binding and its absence hold for the method and conditions named. Some entries that bind do so weakly or less than the wild type. Values belong to the substance of their own block, whether it stands above or below them.
Columns and labels:
[1] = biological target: T1, Catenin (GenBank U96136) 684-1148 (human) (UniProt Q9UQB3); experiment: yeast two-hybrid
T1 sequence (looked up): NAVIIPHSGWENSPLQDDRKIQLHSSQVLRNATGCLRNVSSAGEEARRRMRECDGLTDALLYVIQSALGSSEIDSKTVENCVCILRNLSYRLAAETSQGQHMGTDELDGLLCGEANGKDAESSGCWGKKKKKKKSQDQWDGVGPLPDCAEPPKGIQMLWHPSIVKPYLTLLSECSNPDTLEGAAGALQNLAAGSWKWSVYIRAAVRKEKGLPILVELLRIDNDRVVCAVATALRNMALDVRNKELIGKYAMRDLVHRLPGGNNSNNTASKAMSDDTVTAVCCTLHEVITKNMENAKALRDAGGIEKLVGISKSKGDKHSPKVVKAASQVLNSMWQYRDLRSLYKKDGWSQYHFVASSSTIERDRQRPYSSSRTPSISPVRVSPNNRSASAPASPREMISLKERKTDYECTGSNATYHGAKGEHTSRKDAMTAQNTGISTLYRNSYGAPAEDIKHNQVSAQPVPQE

Chains of the proteins cited; added tags and fusions are not shown. Lines headed by an entry give the natural chain unless they say otherwise; changes in a name come on top. Residues count along the entry.
UniProt Q15075, residues 872-1039: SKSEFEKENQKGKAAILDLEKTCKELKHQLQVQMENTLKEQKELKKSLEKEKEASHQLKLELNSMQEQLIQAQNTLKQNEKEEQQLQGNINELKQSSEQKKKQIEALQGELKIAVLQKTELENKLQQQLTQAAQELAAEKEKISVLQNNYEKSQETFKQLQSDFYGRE
UniProt P48668, residues 373-444: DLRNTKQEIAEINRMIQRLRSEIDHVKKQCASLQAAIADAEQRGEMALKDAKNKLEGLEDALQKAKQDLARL
E6-AP ubiquitin-protein ligase (UBE3A) 636-861 (Q05086, residues 636-861): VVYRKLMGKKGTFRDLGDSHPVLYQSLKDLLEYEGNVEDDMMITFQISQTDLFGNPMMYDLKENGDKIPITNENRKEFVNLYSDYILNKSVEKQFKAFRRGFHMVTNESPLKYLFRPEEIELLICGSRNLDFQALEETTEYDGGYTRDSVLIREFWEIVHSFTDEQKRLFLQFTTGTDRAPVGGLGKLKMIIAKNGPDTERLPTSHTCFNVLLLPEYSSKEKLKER
E6-AP ubiquitin-protein ligase (UBE3A) 705-861 (Q05086, residues 705-861): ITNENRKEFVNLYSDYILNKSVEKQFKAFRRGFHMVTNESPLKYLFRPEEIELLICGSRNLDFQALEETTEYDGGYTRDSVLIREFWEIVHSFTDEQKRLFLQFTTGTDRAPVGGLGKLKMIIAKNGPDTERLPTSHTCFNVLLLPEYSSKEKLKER
E6-AP ubiquitin-protein ligase (UBE3A) 720-861 (Q05086, residues 720-861): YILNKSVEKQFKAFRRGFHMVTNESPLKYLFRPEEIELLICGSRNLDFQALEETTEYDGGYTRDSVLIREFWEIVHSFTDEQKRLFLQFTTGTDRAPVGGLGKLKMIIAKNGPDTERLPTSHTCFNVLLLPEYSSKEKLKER
UniProt Q99816: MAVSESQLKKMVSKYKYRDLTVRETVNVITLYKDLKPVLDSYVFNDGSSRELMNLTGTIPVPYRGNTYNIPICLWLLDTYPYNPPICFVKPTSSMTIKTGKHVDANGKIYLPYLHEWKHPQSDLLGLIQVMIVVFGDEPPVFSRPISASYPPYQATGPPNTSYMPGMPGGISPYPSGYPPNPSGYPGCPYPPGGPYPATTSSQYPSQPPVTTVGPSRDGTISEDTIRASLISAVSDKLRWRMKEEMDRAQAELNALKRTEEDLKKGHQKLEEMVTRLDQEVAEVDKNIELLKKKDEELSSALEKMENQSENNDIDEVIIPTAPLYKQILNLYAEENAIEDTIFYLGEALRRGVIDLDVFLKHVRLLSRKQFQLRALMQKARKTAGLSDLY
UniProt O15392, residues 47-142: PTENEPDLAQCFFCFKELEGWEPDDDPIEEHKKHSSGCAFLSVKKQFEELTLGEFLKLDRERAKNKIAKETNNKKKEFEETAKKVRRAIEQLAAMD
UniProt P35916, residues 791-1177: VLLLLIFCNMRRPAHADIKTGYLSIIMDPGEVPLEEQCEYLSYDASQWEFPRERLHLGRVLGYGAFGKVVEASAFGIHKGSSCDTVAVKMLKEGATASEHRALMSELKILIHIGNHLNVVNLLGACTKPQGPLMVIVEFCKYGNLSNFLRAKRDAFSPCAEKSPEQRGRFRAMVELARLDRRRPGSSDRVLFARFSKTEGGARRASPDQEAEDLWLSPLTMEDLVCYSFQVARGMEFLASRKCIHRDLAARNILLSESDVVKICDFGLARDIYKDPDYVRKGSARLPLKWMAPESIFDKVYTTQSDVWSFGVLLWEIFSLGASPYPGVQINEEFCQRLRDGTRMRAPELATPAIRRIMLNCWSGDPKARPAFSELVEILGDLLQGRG

[2] = biological target: Endosome-associated protein 1 872-1039 (human) (UniProt Q15075); experiment: yeast two-hybrid
[3] = biological target: Keratin 6C 373-444 (human) (UniProt P48668); experiment: yeast two-hybrid
Hook2 132-428 (human) = biological target: T2, Hook2 132-428 (human) (UniProt Q96ED9); experiment: yeast two-hybrid, breast and prostate cancer library
T2 sequence (looked up): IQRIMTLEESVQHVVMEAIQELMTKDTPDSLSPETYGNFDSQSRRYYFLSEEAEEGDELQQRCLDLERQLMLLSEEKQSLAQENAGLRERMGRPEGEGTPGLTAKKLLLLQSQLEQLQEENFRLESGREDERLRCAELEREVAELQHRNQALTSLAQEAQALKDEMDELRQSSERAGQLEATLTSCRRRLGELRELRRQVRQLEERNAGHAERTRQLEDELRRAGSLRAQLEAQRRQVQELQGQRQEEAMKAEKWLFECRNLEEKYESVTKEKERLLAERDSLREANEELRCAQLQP

[4] = biological target: T3, Synaptic nuclei expressed gene 1, alt. Transcript beta (3321) (SYNE-1) 1093-1249 (human); experiment: yeast two-hybrid
T3 sequence: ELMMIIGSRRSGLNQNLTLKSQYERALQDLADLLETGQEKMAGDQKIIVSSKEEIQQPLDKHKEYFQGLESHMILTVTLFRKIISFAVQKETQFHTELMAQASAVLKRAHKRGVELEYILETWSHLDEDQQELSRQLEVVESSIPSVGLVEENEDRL

[5] = biological target: T4, Beta-prime subunit of coatomer complex (COPP) 7796-906 (so in the source) (human) (UniProt P35606); experiment: yeast two-hybrid
T4 sequence (looked up): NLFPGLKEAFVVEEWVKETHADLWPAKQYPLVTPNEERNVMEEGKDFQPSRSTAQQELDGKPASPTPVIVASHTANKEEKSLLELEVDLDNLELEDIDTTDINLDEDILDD

[6] = biological target: E6-AP ubiquitin-protein ligase (UBE3A) 636-861 (human) (UniProt Q05086); experiment: yeast two-hybrid
[7] = biological target: E6-AP ubiquitin-protein ligase (UBE3A) 705-861 (human) (UniProt Q05086); experiment: yeast two-hybrid
[8] = biological target: E6-AP ubiquitin-protein ligase (UBE3A) 720-861 (human) (UniProt Q05086); experiment: yeast two-hybrid
[9] = biological target: T5, phospholipase C gamma 1 (PLCG1) 445-757 (human) (UniProt P19174); experiment: yeast two-hybrid
T5 sequence (looked up): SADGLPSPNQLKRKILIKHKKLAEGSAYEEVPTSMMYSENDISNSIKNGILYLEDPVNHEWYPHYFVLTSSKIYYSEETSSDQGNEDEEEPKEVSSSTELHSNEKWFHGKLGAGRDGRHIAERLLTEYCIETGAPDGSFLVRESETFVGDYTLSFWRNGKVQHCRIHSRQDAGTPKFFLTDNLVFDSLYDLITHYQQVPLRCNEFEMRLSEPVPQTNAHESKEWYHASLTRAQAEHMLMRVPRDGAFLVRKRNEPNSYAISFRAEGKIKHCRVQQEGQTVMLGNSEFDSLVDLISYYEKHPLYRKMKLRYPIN

[10] = biological target: T6, phospholipase C gamma 1 (PLCG1) 505-772 (human) (UniProt P19174); experiment: yeast two-hybrid
T6 sequence (looked up): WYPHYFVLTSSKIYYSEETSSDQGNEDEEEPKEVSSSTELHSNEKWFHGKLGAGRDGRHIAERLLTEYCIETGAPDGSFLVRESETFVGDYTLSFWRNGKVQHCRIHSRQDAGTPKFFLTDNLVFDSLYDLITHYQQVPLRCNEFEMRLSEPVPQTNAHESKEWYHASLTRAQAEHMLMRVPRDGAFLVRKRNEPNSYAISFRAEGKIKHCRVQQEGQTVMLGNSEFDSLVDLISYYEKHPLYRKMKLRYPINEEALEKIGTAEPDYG

[11] = biological target: T7, p53-induced protein 7 (PIG7) 1-106 (human) (UniProt Q99732); experiment: yeast two-hybrid
T7 sequence (looked up): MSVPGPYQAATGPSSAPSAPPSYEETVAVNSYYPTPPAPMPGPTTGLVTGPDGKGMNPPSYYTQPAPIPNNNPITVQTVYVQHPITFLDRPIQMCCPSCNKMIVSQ

[12] = biological target: T8, Death associated protein 5 (DAP5) 16-157 (human) (UniProt P78344); experiment: yeast two-hybrid
T8 sequence (looked up): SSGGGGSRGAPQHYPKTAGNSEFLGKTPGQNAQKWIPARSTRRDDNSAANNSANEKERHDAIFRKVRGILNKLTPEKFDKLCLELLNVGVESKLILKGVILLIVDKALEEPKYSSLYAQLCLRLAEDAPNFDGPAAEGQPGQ

[13] = biological target: T8, Death associated protein 5 (DAP5) 16-157 (human); experiment: yeast two-hybrid, macrophage library
Keratin 5 9-171 (human) = biological target: T9, Keratin 5 9-171 (human) (UniProt P13647); experiment: yeast two-hybrid
T9 sequence (looked up): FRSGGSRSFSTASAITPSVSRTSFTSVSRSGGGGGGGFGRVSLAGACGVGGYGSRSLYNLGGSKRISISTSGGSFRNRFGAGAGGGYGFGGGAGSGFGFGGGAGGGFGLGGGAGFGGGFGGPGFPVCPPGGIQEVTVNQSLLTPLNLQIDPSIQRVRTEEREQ

Golgin-67 68-228 (human) [14] = biological target: T10, Golgin-67 68-228 (human) (UniProt A8MQT2); experiment: yeast two-hybrid
T10 sequence (looked up): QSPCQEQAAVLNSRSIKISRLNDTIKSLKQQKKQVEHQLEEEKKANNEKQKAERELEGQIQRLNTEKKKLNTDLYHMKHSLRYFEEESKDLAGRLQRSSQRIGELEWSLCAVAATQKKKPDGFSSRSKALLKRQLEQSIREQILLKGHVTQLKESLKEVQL

[15] = biological target: T11, GrpE-Like protein cochaperone (PN19062) 55-79 (human); experiment: yeast two-hybrid
T11 sequence: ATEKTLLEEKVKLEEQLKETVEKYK

[16] = biological target: T12, Kinectin 851-1110 (human) (UniProt Q86UP2); experiment: yeast two-hybrid
T12 sequence (looked up): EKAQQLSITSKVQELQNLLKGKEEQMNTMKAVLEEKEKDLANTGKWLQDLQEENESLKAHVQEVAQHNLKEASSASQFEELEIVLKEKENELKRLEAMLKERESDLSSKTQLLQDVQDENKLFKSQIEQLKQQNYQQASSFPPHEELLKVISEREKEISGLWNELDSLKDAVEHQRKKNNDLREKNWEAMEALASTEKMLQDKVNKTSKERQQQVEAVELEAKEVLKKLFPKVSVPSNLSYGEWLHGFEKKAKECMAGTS

[17] = biological target: T13, Kinectin 851-1113 (human) (UniProt Q86UP2); experiment: yeast two-hybrid
T13 sequence (looked up): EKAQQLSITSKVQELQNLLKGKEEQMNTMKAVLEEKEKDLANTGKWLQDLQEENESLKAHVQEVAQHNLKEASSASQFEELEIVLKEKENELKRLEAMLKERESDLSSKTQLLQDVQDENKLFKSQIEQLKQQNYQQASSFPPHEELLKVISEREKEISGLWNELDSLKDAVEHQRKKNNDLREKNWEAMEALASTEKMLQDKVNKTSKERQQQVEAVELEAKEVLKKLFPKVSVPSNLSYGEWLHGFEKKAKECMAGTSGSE

[18] = biological target: T14, Kinectin 854-1110 (human) (UniProt Q86UP2); experiment: yeast two-hybrid
T14 sequence (looked up): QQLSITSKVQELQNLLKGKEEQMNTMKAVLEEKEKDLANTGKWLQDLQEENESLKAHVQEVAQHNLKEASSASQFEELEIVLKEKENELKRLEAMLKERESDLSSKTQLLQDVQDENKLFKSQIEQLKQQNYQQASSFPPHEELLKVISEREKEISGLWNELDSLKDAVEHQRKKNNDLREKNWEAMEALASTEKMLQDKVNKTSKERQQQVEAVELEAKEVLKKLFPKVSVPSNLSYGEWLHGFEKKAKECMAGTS

[19] = biological target: T12, Kinectin 851-1110 (human); experiment: yeast two-hybrid, brain library
Golgin-67 68-228 (human) [20] = biological target: T10, Golgin-67 68-228 (human); experiment: yeast two-hybrid, spleen library
[21] = biological target: T11, GrpE-Like protein cochaperone (PN19062) 55-79 (human); experiment: yeast two-hybrid, macrophage library

Substance: Tumor Suppressor (TSG101) 240-391 (from UniProt Q99816 240-390)
- binding [1]: binds
- binding [2]: binds
- binding [3]: binds
- binding (Hook2 132-428 (human)): binds

Substance: Tumor Suppressor (TSG101) 12-326 (from UniProt Q99816 12-326)
- binding [4]: binds

Substance: Survivin (BIRC5) 47-143 (from UniProt O15392 47-142)
- binding [5]: binds

Substance: Tumor Suppressor (TSG101) 265-391 (from UniProt Q99816 265-390)
- binding [12]: binds
- binding [13]: binds

Substance: Tumor Suppressor (TSG101) 1-157 (from UniProt Q99816 1-157)
- binding (Keratin 5 9-171 (human)): binds

Results, then the substance that gave them:

- binding [6]: binds
- binding [7]: binds
- binding [8]: binds
- binding [9]: binds
- binding [10]: binds
Substance: FMS-Related Tyrosine Kinase 4 (FLT4) 791-177 (as printed) (from UniProt P35916 791-1177) (receptor)

- binding [11]: binds
Substance: Tumor Suppressor (TSG101) 1-274 (from UniProt Q99816 1-274)

- binding (Golgin-67 68-228 (human) [14]): binds
- binding [15]: binds
- binding [16]: binds
- binding [17]: binds
- binding [18]: binds
- binding [19]: binds
- binding (Golgin-67 68-228 (human) [20]): binds
- binding [21]: binds
Substance: Tumor Suppressor (TSG101) 231-391 (from UniProt Q99816 231-390)
